Results reported in patent publication EP1988102A1.
No constants are given. Whether binding was seen depends on the method and setting. Some results given as binding are weak or reduced against the parent protein; the word gives no strength.

Amino acid sequences for entries named in this document (tags omitted). Residues count along the entry.
UniProt P16234, residues 24-524: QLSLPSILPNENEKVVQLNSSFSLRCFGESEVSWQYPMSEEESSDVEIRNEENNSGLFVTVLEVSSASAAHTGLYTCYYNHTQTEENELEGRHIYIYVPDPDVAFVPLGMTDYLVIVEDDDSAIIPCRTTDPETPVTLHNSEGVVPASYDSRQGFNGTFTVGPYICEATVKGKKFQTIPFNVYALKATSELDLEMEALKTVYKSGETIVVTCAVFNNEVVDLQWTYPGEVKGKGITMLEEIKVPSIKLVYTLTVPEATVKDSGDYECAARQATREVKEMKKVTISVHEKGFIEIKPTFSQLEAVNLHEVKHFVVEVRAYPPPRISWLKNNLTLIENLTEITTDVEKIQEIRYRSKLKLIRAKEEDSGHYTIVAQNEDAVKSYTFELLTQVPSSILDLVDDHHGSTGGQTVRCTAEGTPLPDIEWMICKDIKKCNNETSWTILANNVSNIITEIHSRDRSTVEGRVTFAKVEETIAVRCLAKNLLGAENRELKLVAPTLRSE

Target: PDGF receptor α (R&D Systems) (UniProt P16234)
Assay: 125I-zvegf3 (10 ng/mL) bound to cultured cells on ice, with or without unlabelled zvegf3, VEGF, PDGF-BB, PDGF receptor α or PDGF receptor β-Fc; gamma counting

binding: binds
Substance: recombinant zvegf3 growth factor domain protein (from UniProt Q9NRA1 235-345) (ligand)
